Source: ChEMBL document CHEMBL3988442, “University of Dundee, Small-Polar-MMV Screening Library” (2021).

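Assay of Toxoplasma gondii numbers, read through their beta-galactosidase reporter with a colour substrate. Concentration: 50 µM. Higher reads as fewer parasites (inferred from which compounds were picked for retests). About 18,000 compounds were tested under these conditions; 0.94% (about 170) showed 50% or more at least once.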

Values are the deposited “Percent Effect”, in %. The record does not define 0% and 100%; most values in the screen are far below 50% and negative numbers occur (in some assays of this library far below -100). The compounds are a random part of those screened.

Compound,Percent Effect
CC(CO)SCc1nnc(C(C)C)o1 (centres unmarked),-9.883
N#CCCNC(=O)CN1CCCCCC1,-10.45
CC(Cc1cccs1)N(C)C(=O)CC1(N)CCC1 (centres unmarked),12.37
CC(=O)c1cc(C(=O)NC2CCC(=O)NC2)ccc1C (centres unmarked),4.255
O=S(=O)(CC(O)CO)c1cccc(C(F)(F)F)c1 (centres unmarked),-5.234
NC(=O)CN1CCCN(c2nccs2)CC1,-28.63
C=Cc1nnnn1-c1ccccc1,-9.725
Cc1cc(C)n(CC(=O)N2CCOCC2C)n1 (centres unmarked),-14.88
CC(C)N1CCC(NCCc2ccccn2)CC1,10.39
CN(C)c1ccc(NC(=O)N2CCSCC2)cn1,-21.27
CS(=O)(=O)C[C@H]1CCCN1,3.234
CN1CCOC[C@H]2CCN(C(=O)c3cccs3)C[C@H]21,7.804
CNC(=O)Cc1cccs1,0.3815
Cc1nnc(CN(C)C(=O)c2c(C)noc2C)o1,-14.44
CCC(C)OCC(=O)N(C)Cc1ccc(O)cc1 (centres unmarked),4.842
CN1CCCC(N(C)S(=O)(=O)Cc2cccc(F)c2)C1 (centres unmarked),9.124
O=C(CN1CCSCC1)NCC1CCCO1 (centres unmarked),0.9631
O=S(=O)(NCCC(O)c1ccccc1)c1c[nH]cn1 (centres unmarked),-8.971
c1ccc2c(c1)COC21CCCNC1 (centres unmarked),16.49
CC(C)OCCN1CCC(O)CC1,2.889
COc1ccc(CN2CC(C)(OC)C2)c(OC)c1OC,-5.958
CNC(C)(C)CNC(=O)Nc1cc(OC)ccc1OC,-1.112
COC(=O)c1csc(NC(=O)c2cnn(C)c2)c1,0.08172
NCCCc1nc(-c2ccncc2)cs1,-3.15
Cc1c(CN2CC3(CCNCC3)OC2=O)cnn1C,1.426
COc1ccc(F)cc1C(=O)OCC(=O)NC1CC1,-2.489
Cc1nc(C(N)c2ccc(Cl)c(F)c2)no1 (centres unmarked),-17.33
CCN(CC)C(=O)Nc1c(C)nn(C)c1OC,-0.2005
O=C(Cn1cc(Br)cn1)N1N=CCC1(O)C(F)(F)F (centres unmarked),-25.92
CC(C)CN1CCC(Nc2ccc3nnnn3n2)CC1,-8.962
CCOc1ccc(CNC(=O)CCn2cccn2)cc1,-5.572
CN1CCN(C(=O)C2CC23CCNCC3)CC1 (centres unmarked),-20.8
CCN(CC)CCOC1CCNCC1,-2.471
CNC(=O)c1cc(=O)[nH]c2c(Br)cccc12,8.506
CCCc1cc(CN(C)C(=O)c2ccnnc2)n[nH]1,8.902
CN(C)S(=O)(=O)NCC1CCCN(Cc2ccsc2)C1 (centres unmarked),-3.49
Cc1ccc(C2CN(CCOC(=O)N(C)C)CCO2)o1 (centres unmarked),-0.1672
CC(C)(CNC1CCN(c2ccccn2)C1)S(C)(=O)=O (centres unmarked),-3.22
C=Cc1cccc(CN(C)CCC(=O)NC)c1,3.62
Nc1ncccc1C(=O)NCCC1=CCCCC1,-6.494
NC(=O)COc1ccc(CNC2CCCC2)cc1,6.384
Cn1ccnc1CCNC(=O)C1(C)CCCO1 (centres unmarked),14.43
NS(=O)(=O)C1CCCc2ccccc21 (centres unmarked),-15.06
O=C(c1ccc2ccccc2c1)N1CC[C@@H](O)C1,15.57
Cc1cc(CN(C)C(=O)c2scnc2C)no1,0.9982
CSCCC(=O)NC(C)c1ccc2c(c1)OCCCO2 (centres unmarked),-1.685
CS(=O)(=O)C1CCCCNC1 (centres unmarked),2.206
O=S(=O)(c1ccc2c(c1)CCCN2)N1CCCC1,5.041
c1cncc(N2CCCCC2)c1,2.434
CCC(c1ccccn1)N(C)C(=O)c1occc1C (centres unmarked),-18.04
CCc1nc(CN(C)C(=O)c2cc(CO)ccn2)no1,-2.159
CC(Oc1ccc(S(C)(=O)=O)cc1)C(=O)N(C)C (centres unmarked),7.055
OC1CN(c2nccc(C(F)(F)F)n2)C1,-2.258
Cc1cc2c(cc1C(N)=O)OCCCO2,16.19
C[C@@H](N)C(=O)NCCN1CCCCC1,-13.39
Nc1ccn(-c2ccc(C(F)(F)F)cn2)n1,9.315
CCOc1ccc(Cl)cc1C(N)=O,-6.805
CC1(C)CN(c2ncccc2C#N)CCO1,-7.037
CC(NC(=O)c1ccn(C2CCCC2)n1)c1ncon1 (centres unmarked),-14.77
CN(C)C(=O)N1CCN(C(=O)CN)CC1,8.959
CC(=O)Nc1nc(C)c(S(=O)(=O)N2CCCC2)s1,3.952
Cc1c(C(N)=O)nnn1-c1ccc2c(c1)OCCO2,1.224
NCc1ccnc(NC2CC2)c1,-7.621
CC(C)c1ncc(C(=O)NC2C=CS(=O)(=O)C2)cn1 (centres unmarked),3.162
CCC(N)C(=O)N1CCN(c2cc(C)ccc2C)CC1 (centres unmarked),34.58
CNCC1(CO)CCCC1,6.817
CCCn1cnnc1CNC(=O)C(C)NC(=O)OC (centres unmarked),9.927
CCNC(=O)NCC(C)Oc1cccc(OC)c1 (centres unmarked),-21.9
CN1CCCN(C(=O)Nc2cccc(F)c2)CC1,0.7578

The first 7 entries again:

Compound	Percent Effect
CC(CO)SCc1nnc(C(C)C)o1 (centres unmarked)	-9.883
N#CCCNC(=O)CN1CCCCCC1	-10.45
CC(Cc1cccs1)N(C)C(=O)CC1(N)CCC1 (centres unmarked)	12.37
CC(=O)c1cc(C(=O)NC2CCC(=O)NC2)ccc1C (centres unmarked)	4.255
O=S(=O)(CC(O)CO)c1cccc(C(F)(F)F)c1 (centres unmarked)	-5.234
NC(=O)CN1CCCN(c2nccs2)CC1	-28.63
C=Cc1nnnn1-c1ccccc1	-9.725